Test: Washing tests, cleaning performance on standardized stains on cotton
Conditions: 40° C., 70 g bleach-free liquid washing agent plus 0.7 g compound in 17 l water of 16° dH, versus washing agent alone
Experimental: Washing tests were carried out at 40° C. as a triple determination on standardized stains, specified in table 1, on cotton, an aqueous liquid washing agent that is free of bleaching agent (and contains, in addition to water, 5.5 wt. % 7-fold ethoxylated C12/14 fatty alcohol, 5.3 wt. % sodium C9-13 alkylbenzene sulfonate, 4.9 wt. % sodium C12/14 fatty alcohol ether sulfate having 2 EO, 1.8 wt. % citric acid, 3 wt. % C12-18 fatty acid, 0.1 wt. % diethylene triamine penta (methylene phosphonic acid) hepta sodium salt, 1.3 wt. % NaOH, 3.6 wt. % ethanol/glycerol) having a pH of 8.5 having been used and washing liquors having been prepared therewith, the washing liquors consisting of 70 g of the liquid washing agent or 70 g of the liquid washing agent and 0.7 g Si from example 1 in every 17 l water of 16° dH. The evaluation was completed by measuring the color distance according to the L*a*b* vales and the Y values calculated therefrom as a measure for brightness.

In the case of CN(C)CCNC(=O)c1ccc(C(=O)NCCN(C)C)c(O)c1O [S1, 2,3-dihydroxy-N,N′-bis(2-(dimethylamino)ethyl) terephthaldiamide], the “d(dY)” value (Bilberry juice stain on cotton) is reported as 8.0, the “d(dY)” value (Blackcurrant juice stain on cotton) is reported as 4.5 and the “d(dY)” value (Cocoa stain on cotton) is reported as 4.6. For the same compound, the “d(dY)” value (Coffee stain on cotton) was 3.7 and the “d(dY)” value (Red wine stain on cotton) was 3.3.
